Data as given in the supplement of paper PMC6411743.
± gives the standard deviation of the averaged measurements. The entries are a selection whose mix differs from that of the whole data set.

Assays:
Assay in all cases: NP40-soluble protein abundance relative to vehicle (solubility fold change) (ratio); higher = more soluble protein in presence of AMP-PNP
UniProt Q96RF0-2 = target: T1, UniProt Q96RF0-2
T1 sequence (whole entry): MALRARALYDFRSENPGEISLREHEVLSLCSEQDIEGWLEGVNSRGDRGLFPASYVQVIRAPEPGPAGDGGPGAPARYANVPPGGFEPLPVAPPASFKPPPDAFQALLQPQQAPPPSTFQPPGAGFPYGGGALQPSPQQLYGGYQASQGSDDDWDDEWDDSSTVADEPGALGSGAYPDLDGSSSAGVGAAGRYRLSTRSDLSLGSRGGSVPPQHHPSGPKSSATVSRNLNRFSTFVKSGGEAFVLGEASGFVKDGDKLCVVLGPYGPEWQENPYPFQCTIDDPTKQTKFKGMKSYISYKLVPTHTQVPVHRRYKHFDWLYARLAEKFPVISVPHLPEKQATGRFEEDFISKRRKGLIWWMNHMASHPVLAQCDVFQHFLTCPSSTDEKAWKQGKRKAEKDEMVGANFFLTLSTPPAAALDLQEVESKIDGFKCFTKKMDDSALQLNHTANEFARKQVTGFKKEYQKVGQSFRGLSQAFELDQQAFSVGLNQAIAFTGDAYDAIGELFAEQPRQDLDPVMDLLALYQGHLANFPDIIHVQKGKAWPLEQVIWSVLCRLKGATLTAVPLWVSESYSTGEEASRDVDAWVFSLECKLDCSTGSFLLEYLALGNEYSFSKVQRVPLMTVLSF
In short: (§1)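 Jurkat crude lysate prepared with a Dounce homogeniser was treated at eight concentrations spanning 0.1 to 10 mM, 10 min at room temperature then 3 min at 37 °C. Solubilisation with 0.8% NP40 and benzonase and ultracentrifugation preceded TMT labelling of the supernatant for LC-MS/MS. Fold change against the detergent-processed vehicle was determined per replicate from vsn-normalised intensities, across three independent experiments.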

[1] = target: T2, UniProt Q99808 and related entries
T2 sequence (whole entry): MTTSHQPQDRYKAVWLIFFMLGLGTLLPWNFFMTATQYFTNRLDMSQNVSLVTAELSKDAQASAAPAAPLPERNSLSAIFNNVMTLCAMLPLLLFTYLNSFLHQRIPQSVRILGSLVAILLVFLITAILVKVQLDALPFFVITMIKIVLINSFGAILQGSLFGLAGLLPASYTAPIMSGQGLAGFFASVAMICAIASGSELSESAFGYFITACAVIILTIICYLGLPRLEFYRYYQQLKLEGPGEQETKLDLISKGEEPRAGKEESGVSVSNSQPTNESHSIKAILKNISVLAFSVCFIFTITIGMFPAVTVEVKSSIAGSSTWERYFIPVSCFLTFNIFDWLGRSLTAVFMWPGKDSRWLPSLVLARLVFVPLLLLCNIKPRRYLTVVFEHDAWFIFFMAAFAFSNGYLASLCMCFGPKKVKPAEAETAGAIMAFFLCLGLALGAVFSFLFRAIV
In short: as §1

[2] = target: T3, UniProt Q9BPX7 and related entries
T3 sequence (whole entry): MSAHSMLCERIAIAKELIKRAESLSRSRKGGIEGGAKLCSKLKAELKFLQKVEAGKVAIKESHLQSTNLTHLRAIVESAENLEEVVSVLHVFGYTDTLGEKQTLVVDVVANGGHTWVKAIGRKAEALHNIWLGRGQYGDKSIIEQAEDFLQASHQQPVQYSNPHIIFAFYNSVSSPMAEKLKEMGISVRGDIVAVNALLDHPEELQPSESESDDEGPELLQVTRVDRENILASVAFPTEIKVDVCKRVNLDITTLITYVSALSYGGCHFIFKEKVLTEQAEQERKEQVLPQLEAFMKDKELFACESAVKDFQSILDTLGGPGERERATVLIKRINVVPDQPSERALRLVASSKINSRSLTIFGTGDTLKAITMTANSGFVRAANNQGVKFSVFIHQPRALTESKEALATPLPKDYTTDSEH
In short: as §1

UniProt Q9BQ61 = target: T4, UniProt Q9BQ61
T4 sequence (whole entry): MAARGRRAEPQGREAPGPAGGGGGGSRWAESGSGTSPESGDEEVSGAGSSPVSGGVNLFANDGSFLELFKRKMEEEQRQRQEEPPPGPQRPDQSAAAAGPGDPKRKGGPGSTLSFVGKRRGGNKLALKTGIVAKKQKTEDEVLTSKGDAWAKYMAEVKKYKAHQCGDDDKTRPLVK
In short: as §1

UniProt Q9BRT3 = target: T5, UniProt Q9BRT3
T5 sequence (whole entry): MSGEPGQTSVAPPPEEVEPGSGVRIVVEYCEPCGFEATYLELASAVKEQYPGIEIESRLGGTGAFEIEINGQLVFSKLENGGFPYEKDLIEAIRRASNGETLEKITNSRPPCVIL
In short: as §1

UniProt Q9BRX9 = target: T6, UniProt Q9BRX9
T6 sequence (whole entry): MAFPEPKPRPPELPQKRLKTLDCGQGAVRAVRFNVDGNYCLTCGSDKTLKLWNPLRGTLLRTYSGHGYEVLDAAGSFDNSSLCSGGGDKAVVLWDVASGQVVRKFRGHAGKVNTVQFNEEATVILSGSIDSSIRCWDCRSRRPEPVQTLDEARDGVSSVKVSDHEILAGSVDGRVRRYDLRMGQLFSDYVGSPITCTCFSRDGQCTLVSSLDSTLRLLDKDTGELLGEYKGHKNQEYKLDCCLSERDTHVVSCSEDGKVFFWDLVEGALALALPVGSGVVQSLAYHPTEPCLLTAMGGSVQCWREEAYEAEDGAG
In short: as §1

[3] = target: T7, UniProt Q9BTC8 and related entries
T7 sequence (whole entry): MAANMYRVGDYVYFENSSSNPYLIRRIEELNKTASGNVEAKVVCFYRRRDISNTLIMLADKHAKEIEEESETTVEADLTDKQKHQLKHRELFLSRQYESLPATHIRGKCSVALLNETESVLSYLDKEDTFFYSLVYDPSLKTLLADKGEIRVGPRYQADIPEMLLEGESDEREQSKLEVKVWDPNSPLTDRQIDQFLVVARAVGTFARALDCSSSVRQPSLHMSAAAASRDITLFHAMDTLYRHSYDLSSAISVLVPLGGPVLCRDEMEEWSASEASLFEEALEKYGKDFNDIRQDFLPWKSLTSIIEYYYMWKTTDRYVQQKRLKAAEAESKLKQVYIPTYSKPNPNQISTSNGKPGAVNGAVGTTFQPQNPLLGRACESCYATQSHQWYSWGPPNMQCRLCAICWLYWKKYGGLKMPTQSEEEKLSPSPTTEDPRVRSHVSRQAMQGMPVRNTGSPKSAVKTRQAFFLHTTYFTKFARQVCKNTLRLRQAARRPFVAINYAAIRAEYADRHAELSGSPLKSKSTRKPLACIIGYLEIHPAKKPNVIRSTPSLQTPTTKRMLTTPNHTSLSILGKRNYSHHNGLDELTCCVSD
In short: as §1

[4] = target: T8, UniProt Q9BU02 and related entries
T8 sequence (whole entry): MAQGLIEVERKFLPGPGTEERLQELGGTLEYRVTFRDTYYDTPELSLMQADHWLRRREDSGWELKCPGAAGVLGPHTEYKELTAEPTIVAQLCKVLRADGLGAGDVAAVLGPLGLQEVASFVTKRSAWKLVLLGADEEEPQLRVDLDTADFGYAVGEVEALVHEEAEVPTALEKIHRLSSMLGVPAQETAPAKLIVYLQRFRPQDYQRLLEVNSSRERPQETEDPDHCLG
In short: as §1

UniProt Q9BUA3 = target: T9, UniProt Q9BUA3
T9 sequence (whole entry): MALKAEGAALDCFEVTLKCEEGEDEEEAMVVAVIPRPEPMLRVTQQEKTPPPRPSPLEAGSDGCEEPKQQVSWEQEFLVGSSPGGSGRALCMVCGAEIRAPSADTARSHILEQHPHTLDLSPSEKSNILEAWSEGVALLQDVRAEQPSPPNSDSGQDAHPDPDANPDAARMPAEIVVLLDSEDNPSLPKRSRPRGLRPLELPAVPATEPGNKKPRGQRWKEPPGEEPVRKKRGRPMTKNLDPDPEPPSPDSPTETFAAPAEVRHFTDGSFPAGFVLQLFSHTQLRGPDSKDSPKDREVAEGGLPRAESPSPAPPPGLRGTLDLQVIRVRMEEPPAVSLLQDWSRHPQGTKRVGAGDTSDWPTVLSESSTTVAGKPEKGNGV
In short: as §1

Nc1ncnc2c1ncn2[C@@H]1O[C@H](COP(=O)(O)OP(=O)(O)NP(=O)(O)O)[C@@H](O)[C@H]1O [adenylyl imidodiphosphate]
NP40-soluble protein abundance (UniProt Q96RF0-2; concentration: 6mM): 1.01 ± 0.012 | NP40-soluble protein abundance (UniProt Q96RF0-2; concentration: 8mM): 1.03 ± 0.0045 | NP40-soluble protein abundance (UniProt Q96RF0-2; concentration: 10mM): 0.9904 ± 0.0087 | NP40-soluble protein abundance ([1]; concentration: 1mM): 0.919 ± 0.083 | NP40-soluble protein abundance ([1]; concentration: 2mM): 0.846 ± 0.03 | NP40-soluble protein abundance ([1]; concentration: 4mM): 0.928 ± 0.022 | NP40-soluble protein abundance ([1]; concentration: 6mM): 0.937 ± 0.084 | NP40-soluble protein abundance ([1]; concentration: 8mM): 0.957 ± 0.074 | NP40-soluble protein abundance ([1]; concentration: 10mM): 0.89 ± 0.03 | NP40-soluble protein abundance ([2]; concentration: 1mM): 1.03 ± 0.038 | NP40-soluble protein abundance ([2]; concentration: 2mM): 1.04 ± 0.013 | NP40-soluble protein abundance ([2]; concentration: 4mM): 1.02 ± 0.029 | NP40-soluble protein abundance ([2]; concentration: 6mM): 1.02 ± 0.03 | NP40-soluble protein abundance ([2]; concentration: 8mM): 1.02 ± 0.027 | NP40-soluble protein abundance ([2]; concentration: 10mM): 1.04 ± 0.02 | NP40-soluble protein abundance (UniProt Q9BQ61; concentration: 1mM): 1.01 ± 0.032 | NP40-soluble protein abundance (UniProt Q9BQ61; concentration: 2mM): 1.02 ± 0.088 | NP40-soluble protein abundance (UniProt Q9BQ61; concentration: 4mM): 0.973 ± 0.057 | NP40-soluble protein abundance (UniProt Q9BQ61; concentration: 6mM): 0.967 ± 0.077 | NP40-soluble protein abundance (UniProt Q9BQ61; concentration: 8mM): 0.906 ± 0.05 | NP40-soluble protein abundance (UniProt Q9BQ61; concentration: 10mM): 1.02 ± 0.013 | NP40-soluble protein abundance (UniProt Q9BRT3; concentration: 1mM): 0.926 ± 0.021 | NP40-soluble protein abundance (UniProt Q9BRT3; concentration: 2mM): 1 ± 0.064 | NP40-soluble protein abundance (UniProt Q9BRT3; concentration: 4mM): 0.917 ± 0.046 | NP40-soluble protein abundance (UniProt Q9BRT3; concentration: 6mM): 0.8874 ± 0.0078 | NP40-soluble protein abundance (UniProt Q9BRT3; concentration: 8mM): 0.8618 ± 0.0024 | NP40-soluble protein abundance (UniProt Q9BRT3; concentration: 10mM): 0.815 ± 0.021 | NP40-soluble protein abundance (UniProt Q9BRX9; concentration: 1mM): 1 ± 0.038 | NP40-soluble protein abundance (UniProt Q9BRX9; concentration: 2mM): 0.959 ± 0.053 | NP40-soluble protein abundance (UniProt Q9BRX9; concentration: 4mM): 1.01 ± 0.045 | NP40-soluble protein abundance (UniProt Q9BRX9; concentration: 6mM): 0.988 ± 0.028 | NP40-soluble protein abundance (UniProt Q9BRX9; concentration: 8mM): 0.999 ± 0.01 | NP40-soluble protein abundance (UniProt Q9BRX9; concentration: 10mM): 0.99 ± 0.028 | NP40-soluble protein abundance ([3]; concentration: 1mM): 0.976 ± 0.035 | NP40-soluble protein abundance ([3]; concentration: 2mM): 0.98 ± 0.022 | NP40-soluble protein abundance ([3]; concentration: 4mM): 1 ± 0.082 | NP40-soluble protein abundance ([3]; concentration: 6mM): 1.08 ± 0.013 | NP40-soluble protein abundance ([3]; concentration: 8mM): 1.09 ± 0.032 | NP40-soluble protein abundance ([3]; concentration: 10mM): 1.1 ± 0.053 | NP40-soluble protein abundance ([4]; concentration: 1mM): 1.03 ± 0.054 | NP40-soluble protein abundance ([4]; concentration: 2mM): 1.06 ± 0.05 | NP40-soluble protein abundance ([4]; concentration: 4mM): 1.04 ± 0.08 | NP40-soluble protein abundance ([4]; concentration: 6mM): 1.01 ± 0.049 | NP40-soluble protein abundance ([4]; concentration: 8mM): 1.02 ± 0.082 | NP40-soluble protein abundance ([4]; concentration: 10mM): 0.994 ± 0.098 | NP40-soluble protein abundance (UniProt Q9BUA3; concentration: 1mM): 1.02 ± 0.026 | NP40-soluble protein abundance (UniProt Q9BUA3; concentration: 2mM): 1.036 ± 0.0066 | NP40-soluble protein abundance (UniProt Q9BUA3; concentration: 4mM): 1.013 ± 0.0039 | NP40-soluble protein abundance (UniProt Q9BUA3; concentration: 6mM): 0.981 ± 0.048
